Measured values: the supplement of paper PMC3334620
In all, about 33,000 sequences were measured (“E-score (-0.5 to 0.5)”: median about -0.0014, highest 2% from about 0.25 on). This is one part of the list.

The sequences below were run against T1, Cad1 (UniProt P24813) (assay: PBM E-score (8-mer binding enrichment) (E-score (-0.5 to 0.5)); higher = stronger / more preferred TF binding). Conditions: protein concentration: 100 nM; construct: GST-full length.
T1 sequence: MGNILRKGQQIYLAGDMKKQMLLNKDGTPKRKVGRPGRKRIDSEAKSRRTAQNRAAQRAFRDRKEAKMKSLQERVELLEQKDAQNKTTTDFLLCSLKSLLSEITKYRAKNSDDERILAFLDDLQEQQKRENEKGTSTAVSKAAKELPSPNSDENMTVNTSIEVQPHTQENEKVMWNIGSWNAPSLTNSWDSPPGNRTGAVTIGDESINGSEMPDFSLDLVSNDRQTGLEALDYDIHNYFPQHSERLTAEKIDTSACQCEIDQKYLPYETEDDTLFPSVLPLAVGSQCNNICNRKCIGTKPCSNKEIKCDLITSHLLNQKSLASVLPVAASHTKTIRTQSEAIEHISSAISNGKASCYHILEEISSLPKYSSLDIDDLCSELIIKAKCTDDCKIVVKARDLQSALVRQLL
Procedure, shortened: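 Masliner-normalised scans of fluorescent anti-GST signal were the basis for scoring. That signal came from GST-tagged yeast transcription factors applied at about 100-200 nM to double-stranded universal all-10-mer Agilent arrays on fresh or once-stripped slides. Each ungapped eight-base word, pooled with its reverse complement, received an E-score from the Universal PBM Analysis Suite.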
With CGCATAGC the “PBM E-score” value was -0.0722.
In the case of AAGCACTC, the “PBM E-score” value is reported as 0.0478.
With GCGGAGCA the “PBM E-score” value was -0.246.
ACTCGTCT was tested, and the “PBM E-score” value was 0.0182.
In the case of AATTTCAC, the “PBM E-score” value is reported as 0.178.
With ACATCTTA the “PBM E-score” value was -0.0753.
ACGAAGAT was tested, and the “PBM E-score” value was 0.0507.
ACACTGTC was tested, and the “PBM E-score” value was 0.0876.
In the case of CCAACAAG, the “PBM E-score” value is reported as -0.13.
In the case of AGTGGTCC, the “PBM E-score” value is reported as -0.00985.
CCTGGTAC was tested, and the “PBM E-score” value was -0.0372.
GTAATGTA was tested, and the “PBM E-score” value was 0.00177.
For CTATTTTA, the “PBM E-score” value was 0.104.
In the case of ATCGTTAA, the “PBM E-score” value is reported as 0.165.
With GTTACACA the “PBM E-score” value was 0.101.
AGGGTTCA was tested, and the “PBM E-score” value was 0.0205.
In the case of CGTTACAG, the “PBM E-score” value is reported as -0.0983.
With CTCTATTA the “PBM E-score” value was -0.0331.
CAGAGGGG was tested, and the “PBM E-score” value was -0.351.
ACTGTACT was tested, and the “PBM E-score” value was -0.125.
ATAATAGG was tested, and the “PBM E-score” value was 0.0291.
ATCATGTC was tested, and the “PBM E-score” value was 0.195.
In the case of CGTTGGCC, the “PBM E-score” value is reported as -0.189.
For ACCCTGTA, the “PBM E-score” value was 0.0849.
With AAGGCTAG the “PBM E-score” value was -0.137.
CAAATTTG was tested, and the “PBM E-score” value was 0.33.
With TACACCCA the “PBM E-score” value was 0.0878.
In the case of GGCGTTTA, the “PBM E-score” value is reported as -0.0553.
With GTTTACTA the “PBM E-score” value was 0.195.
CAGTGCAA was tested, and the “PBM E-score” value was 0.137.
For GTTTCTAA, the “PBM E-score” value was 0.00035.
In the case of ATAAATTA, the “PBM E-score” value is reported as 0.364.
GTTGACGA was tested, and the “PBM E-score” value was 0.108.
With CACCATAC the “PBM E-score” value was -0.0136.
ACCAGTCA was tested, and the “PBM E-score” value was -0.0959.
With CCAATCCC the “PBM E-score” value was -0.119.
In the case of CAACTCTC, the “PBM E-score” value is reported as -0.0706.
In the case of AAGTTAAC, the “PBM E-score” value is reported as 0.199.
For CGTATGTC, the “PBM E-score” value was -0.101.
With ACTATCTC the “PBM E-score” value was 0.0895.
In the case of ACAGCAGA, the “PBM E-score” value is reported as 0.00526.
For CCAAAGGG, the “PBM E-score” value was -0.0732.
For CCTTGCGC, the “PBM E-score” value was -0.0395.
CCTACACG was tested, and the “PBM E-score” value was -0.175.
In the case of GGACATCC, the “PBM E-score” value is reported as 0.0434.
CTATGCTA was tested, and the “PBM E-score” value was 0.0539.
In the case of ATATCGAT, the “PBM E-score” value is reported as 0.23.
For AAAGCTTC, the “PBM E-score” value was -0.0978.
GCTTCCCA was tested, and the “PBM E-score” value was -0.121.
In the case of CTATCAAC, the “PBM E-score” value is reported as 0.219.
With TTAATGAA the “PBM E-score” value was 0.115.
GAGTCTAC was tested, and the “PBM E-score” value was -0.221.
CAGGGGGA was tested, and the “PBM E-score” value was -0.365.
In the case of ATGTTGAC, the “PBM E-score” value is reported as 0.0163.
AAACCCGT was tested, and the “PBM E-score” value was -0.148.
In the case of CCGGCTTA, the “PBM E-score” value is reported as 0.0705.
For ATCTTCAC, the “PBM E-score” value was -0.0332.
With ACGCTTCA the “PBM E-score” value was -0.227.
With GATTCAGA the “PBM E-score” value was 0.185.
CCCTACAG was tested, and the “PBM E-score” value was -0.124.
In the case of CGATCTGA, the “PBM E-score” value is reported as 0.0521.
In the case of ACAGCGGC, the “PBM E-score” value is reported as 0.0806.
ACATATGT was tested, and the “PBM E-score” value was 0.0475.
With AGCTCCCC the “PBM E-score” value was -0.375.
With GACCGCTC the “PBM E-score” value was -0.231.
For CTCTCCAG, the “PBM E-score” value was -0.318.
With ACGGTGTC the “PBM E-score” value was -0.0795.
With AAATTGCA the “PBM E-score” value was 0.108.
In the case of CGGAACGA, the “PBM E-score” value is reported as 0.0857.
GTCTAACA was tested, and the “PBM E-score” value was -0.161.
In the case of ATTGAGTC, the “PBM E-score” value is reported as 0.0114.
For AGTTGTCC, the “PBM E-score” value was -0.0988.
In the case of GTCTACGA, the “PBM E-score” value is reported as -0.0725.
TGCAGAAA was tested, and the “PBM E-score” value was 0.114.
AGGACAAA was tested, and the “PBM E-score” value was 0.141.
GCGCGATA was tested, and the “PBM E-score” value was 0.211.
In the case of CACGTTCA, the “PBM E-score” value is reported as -0.0186.
For CCCGGTTC, the “PBM E-score” value was -0.0704.
For AAACCGCA, the “PBM E-score” value was -0.213.
For GACCCTGA, the “PBM E-score” value was -0.167.
For CATCTATC, the “PBM E-score” value was 0.0193.
With TCGGGACA the “PBM E-score” value was -0.11.
With AGTAGGTG the “PBM E-score” value was -0.0552.
With GTCTCAGA the “PBM E-score” value was -0.138.
For CGATAAAC, the “PBM E-score” value was -0.0544.
With GGAAAACA the “PBM E-score” value was 0.18.
For GATTGGGC, the “PBM E-score” value was 0.0731.
For CTCTATCA, the “PBM E-score” value was -0.0671.
In the case of CAAACGTA, the “PBM E-score” value is reported as 0.158.
For ACTGACCT, the “PBM E-score” value was -0.056.
In the case of GTACCGTA, the “PBM E-score” value is reported as -0.0406.
In the case of GCGTCAGC, the “PBM E-score” value is reported as 0.156.
For GCTTGCCC, the “PBM E-score” value was -0.263.
With CGCTATAC the “PBM E-score” value was 0.0438.
In the case of AGGCTACC, the “PBM E-score” value is reported as -0.0565.
In the case of CAGTACGG, the “PBM E-score” value is reported as -0.132.
In the case of ATGTTTTG, the “PBM E-score” value is reported as -0.0921.
For GAGAATTA, the “PBM E-score” value was 0.133.
For GTATGTTA, the “PBM E-score” value was 0.0252.
In the case of AAGATATT, the “PBM E-score” value is reported as 0.153.
In the case of CGACTCGC, the “PBM E-score” value is reported as -0.116.
For GATTAGTA, the “PBM E-score” value was 0.31.
With ACCTCCGG the “PBM E-score” value was 0.107.
For AGAATCCA, the “PBM E-score” value was -0.0993.
In the case of GGGGAATA, the “PBM E-score” value is reported as 0.00396.
In the case of TAAAACAA, the “PBM E-score” value is reported as 0.0793.
In the case of GATTAATA, the “PBM E-score” value is reported as 0.354.
With ACCAGACC the “PBM E-score” value was -0.0167.
With CCAACGAC the “PBM E-score” value was -0.0828.
For ATAACGAC, the “PBM E-score” value was 0.189.
With ATCTAAGC the “PBM E-score” value was 0.0466.
With CATACTAG the “PBM E-score” value was 0.129.
In the case of ATGTTGCG, the “PBM E-score” value is reported as -0.0325.
In the case of AGATCAAC, the “PBM E-score” value is reported as 0.00235.
AGGTACCA was tested, and the “PBM E-score” value was -0.0873.
In the case of GCCGAGTA, the “PBM E-score” value is reported as -0.104.
In the case of ATCCAACA, the “PBM E-score” value is reported as 0.01.
CCTGTATC was tested, and the “PBM E-score” value was -0.0801.
With AAGGGAAA the “PBM E-score” value was -0.151.
CCGAAGCG was tested, and the “PBM E-score” value was -0.22.
AACGGGGG was tested, and the “PBM E-score” value was -0.323.
ATGGTGTG was tested, and the “PBM E-score” value was -0.0227.
ACTTCCAC was tested, and the “PBM E-score” value was 0.00186.
GCTTTCAC was tested, and the “PBM E-score” value was 0.0102.
With ACGAGGCC the “PBM E-score” value was -0.18.
AACACAAC was tested, and the “PBM E-score” value was 0.143.
With AAAGCAAT the “PBM E-score” value was 0.246.
In the case of TGTCCTAA, the “PBM E-score” value is reported as -0.00923.
AAATACCA was tested, and the “PBM E-score” value was 0.182.
With GAAGCTAC the “PBM E-score” value was 0.152.
With GGGGCGAA the “PBM E-score” value was -0.162.
For AGAGTATC, the “PBM E-score” value was -0.0123.
For GGCTTACA, the “PBM E-score” value was 0.229.
With AAGGGACA the “PBM E-score” value was -0.115.
TACGTATA was tested, and the “PBM E-score” value was 0.133.
With GGATGGCA the “PBM E-score” value was 0.169.
With ATTGTGTG the “PBM E-score” value was -0.0643.
For ACCTCCGA, the “PBM E-score” value was -0.176.
With ACTGTGCG the “PBM E-score” value was 0.168.
In the case of ACAACTCT, the “PBM E-score” value is reported as -0.0986.
With ACAACTGA the “PBM E-score” value was -0.101.
For AGGTTTTG, the “PBM E-score” value was -0.174.
With CCCACACG the “PBM E-score” value was -0.0387.
With CACCCCCG the “PBM E-score” value was -0.28.
ACCGGTGA was tested, and the “PBM E-score” value was -0.143.
GCCCTCCA was tested, and the “PBM E-score” value was -0.231.
With CCATTACG the “PBM E-score” value was -0.137.
For ATCTACCC, the “PBM E-score” value was 0.0218.
ACGTGTCC was tested, and the “PBM E-score” value was -0.12.
In the case of GCTCAACC, the “PBM E-score” value is reported as -0.0661.
In the case of GAAATTGA, the “PBM E-score” value is reported as 0.139.
In the case of AGTAAGAA, the “PBM E-score” value is reported as 0.231.
In the case of AAGAGAAA, the “PBM E-score” value is reported as -0.0361.
CTAGCTGA was tested, and the “PBM E-score” value was 0.00706.
With AGTTATCC the “PBM E-score” value was 0.126.
In the case of TGCGGGAA, the “PBM E-score” value is reported as 0.0933.
In the case of AAGACCTG, the “PBM E-score” value is reported as -0.053.
For AAAGCGAG, the “PBM E-score” value was 0.128.
GCATTCTA was tested, and the “PBM E-score” value was 0.0158.
AAAGCACG was tested, and the “PBM E-score” value was -0.143.
In the case of CGAAAGGA, the “PBM E-score” value is reported as -0.142.
With CACCCCCA the “PBM E-score” value was -0.194.
With AACCGCTG the “PBM E-score” value was -0.0505.
AATACCAG was tested, and the “PBM E-score” value was 0.144.
For CCAAACAC, the “PBM E-score” value was 0.0412.
With GCGTGGGA the “PBM E-score” value was -0.0577.
With GGGCCGGA the “PBM E-score” value was -0.286.
ATACCAGA was tested, and the “PBM E-score” value was 0.0253.
With ACCAGACG the “PBM E-score” value was 0.0499.
With GGTGCAAA the “PBM E-score” value was -0.121.
ACCCTCCT was tested, and the “PBM E-score” value was -0.27.
GATTGAGC was tested, and the “PBM E-score” value was 0.0444.
